Experimental data as given in the supplement of paper PMC12823440, “Inhibitors supercharge kinase turnover through native proteolytic circuits” (Nature, 2025).
Where a name gives a salt, the structure may show the parent alone. The list shows a part of the results. Hit calls seldom repeat between salt and free forms of one compound.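 In K562 cells expressing nanoluciferase-fused kinases, luminescence was recorded at 4 h intervals between 2 and 18 h, normalized as percent of control with DMSO at 100% and a positive control at 0%. A significant (2 sigma) signal drop marks a time point as decreased. The authors' rule for a hit is not shown and takes in more than the number of time points.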

By UniProt entry, the sequences of proteins in these tests, tags left out.
UniProt P00519, whole entry: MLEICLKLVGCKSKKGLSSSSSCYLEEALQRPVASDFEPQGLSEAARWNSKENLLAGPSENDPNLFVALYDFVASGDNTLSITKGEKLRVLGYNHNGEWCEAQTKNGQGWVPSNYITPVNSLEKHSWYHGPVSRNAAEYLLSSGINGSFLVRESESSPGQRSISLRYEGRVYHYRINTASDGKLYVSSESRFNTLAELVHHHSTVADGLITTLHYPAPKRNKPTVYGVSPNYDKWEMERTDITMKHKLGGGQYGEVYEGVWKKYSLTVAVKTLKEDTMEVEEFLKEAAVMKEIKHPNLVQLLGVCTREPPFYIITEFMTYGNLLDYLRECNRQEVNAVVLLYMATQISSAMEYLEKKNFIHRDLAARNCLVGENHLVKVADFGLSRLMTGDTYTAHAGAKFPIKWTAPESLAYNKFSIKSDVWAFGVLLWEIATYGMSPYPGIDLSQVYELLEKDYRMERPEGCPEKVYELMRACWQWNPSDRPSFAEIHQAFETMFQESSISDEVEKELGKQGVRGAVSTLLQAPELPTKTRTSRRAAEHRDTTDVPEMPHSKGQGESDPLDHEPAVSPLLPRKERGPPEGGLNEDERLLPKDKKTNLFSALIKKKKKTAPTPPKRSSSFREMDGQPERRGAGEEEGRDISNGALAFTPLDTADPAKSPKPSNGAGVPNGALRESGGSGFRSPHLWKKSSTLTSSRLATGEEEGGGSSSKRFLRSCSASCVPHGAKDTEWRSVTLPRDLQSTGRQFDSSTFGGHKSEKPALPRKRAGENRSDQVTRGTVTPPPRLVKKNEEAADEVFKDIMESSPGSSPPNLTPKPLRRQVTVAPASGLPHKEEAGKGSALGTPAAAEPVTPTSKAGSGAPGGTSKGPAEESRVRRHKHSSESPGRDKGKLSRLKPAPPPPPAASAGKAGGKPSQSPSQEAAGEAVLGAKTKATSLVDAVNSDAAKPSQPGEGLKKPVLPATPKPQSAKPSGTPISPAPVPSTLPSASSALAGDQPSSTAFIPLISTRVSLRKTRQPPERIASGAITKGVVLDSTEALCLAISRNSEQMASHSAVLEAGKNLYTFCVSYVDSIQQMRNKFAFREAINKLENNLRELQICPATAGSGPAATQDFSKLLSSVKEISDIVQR

The compounds below were run against ABL1 (UniProt P00519) (assay: kinase-Nluc reporter destabilization hit call (1 = scored as downregulated) (binary); higher = compound decreases kinase abundance). Conditions: K562; 2-18 h.

kinase-Nluc reporter destabilization hit call, inactive:
O=c1cc(O)cc(/C=C/c2ccc(O)c(O)c2)o1 [Hispidin] (10 µM) 0
CC1CN(C(=O)Nc2ccc(Cl)c(Cl)c2)C(=Nc2ccc(F)cc2)S1 (stereo not drawn) (10 µM) 0
COc1cc2c[n+](C)c3c4cc5c(cc4ccc3c2cc1OC)OCO5 [Nitidine (chloride)] (2 µM) 0
Cc1c(CN2CCN(S(C)(=O)=O)CC2)sc2c(N3CCOCC3)nc(-c3cnc(N)nc3)nc12 (2.5 µM) 0
Cc1cc([C@H](C)Nc2ccccc2)c2oc(N3CCOCC3)cc(=O)c2c1 (10 µM) 0
O=C(CNC(=O)c1ccc(-c2ccccc2)cc1)NC1CCCc2ccccc21 (stereo not drawn) [TAO Kinase inhibitor 1] (10 µM) 0
Cn1cc(-c2ccc(CNc3cc(-c4cnc5cc(OCCCN6CCCC6)ccn45)ncn3)cc2)cn1 (10 µM) 0
Cc1ccc(S(=O)(=O)Nc2ccccc2C=Nc2ccccc2NS(=O)(=O)c2ccc(C)cc2)cc1 (10 µM) 0
O=C(/C=C/c1ccc(O)c(O)c1)c1ccc(O[C@@H]2O[C@H](CO)[C@@H](O)[C@H](O)[C@H]2O)c(O)c1O [Marein] (10 µM) 0
O=C(NCCCNc1nc(Nc2cccc(NC(=O)N3CCCC3)c2)ncc1I)c1cccs1 (2.5 µM) 0
CN(CCNc1ccc2ncc(-c3ccc(C(N)=O)cc3)n2n1)C(=O)OC(C)(C)C (10 µM) 0
C=C(C)C(=O)Nc1cccc(-c2ncnc3[nH]cc(C(=O)OCC)c23)c1 (10 µM) 0
COc1ccc(C(=C2C(=O)Nc3ccccc32)c2ccc(OC)cc2)cc1 (10 µM) 0
CN1CCN(c2ccc(C(=O)Nc3cc(-c4cccc(NS(=O)(=O)c5ccccc5)c4)[nH]n3)cc2)CC1 [BPR1J-097 Hydrochloride] (2.5 µM) 0
C=CC(=O)Nc1cc2c(Nc3ccc(OCc4ccccn4)c(Cl)c3)ncnc2cc1OCCN1CCOCC1 (10 µM) 0
Cc1c(NC(=O)OC[C@@H]2COCCN2)cn2ncnc(Nc3ccc4c(cnn4Cc4cccc(F)c4)c3)c12 (10 µM) 0
CNc1nc(Nc2cnn(C3CCN(C4COC4)CC3F)c2Cl)ncc1C(F)(F)F (stereo not drawn) (10 µM) 0
O=C(NCCO)c1ccc2c(c1)nc(Nc1cccc(Cl)c1)c1ccncc12 [CK2 inhibitor 2] (10 µM) 0
N#CC(c1ccnc(NCCc2cccnc2)n1)c1nc2ccccc2s1 (stereo not drawn) (10 µM) 0
CCN(CC)S(=O)(=O)c1ccc(OC)c(N2CCN(C(=O)c3ccc(F)cc3C(F)(F)F)CC2)c1 (10 µM) 0
CO[C@H]1C[C@@H]2CC[C@@H](C)[C@@](O)(O2)C(=O)C(=O)N2CCCC[C@H]2C(=O)O[C@H]([C@H](C)C[C@@H]2CC[C@@H](O)[C@H](OC)C2)CC(=O)[C@H](C)/C=C(\C)[C@@H](O)[C@@H](OC)C(=O)[C@H](C)C[C@H](C)/C=C/C=C/C=C/1C [Rapamycin] (10 µM) 0
CN(C)CCN(Cc1ccc(Cl)cc1)c1ccccn1 [Chloropyramine hydrochloride] (10 µM) 0
O=C(Nc1ccc(F)cc1F)[C@H](NC(=S)Nc1cc(C(F)(F)F)cc(C(F)(F)F)c1)c1ccccc1 (2.5 µM) 0
Cc1ccc(Nc2cc(-c3cccc(N4C(=O)c5ccccc5C4=O)c3)ncn2)cc1NS(C)(=O)=O (10 µM) 0
CC(C)(C)c1ccc(S(=O)(=O)Nc2ccc(-n3ccnc3)cc2)cc1 (10 µM) 0
CCc1cc(O)c(F)cc1-c1ccc2c(-c3nc4c([nH]3)CN(C3CCN(C)CC3)CC4)n[nH]c2c1 [JAK-IN-5 (hydrochloride)] (2 µM) 0
CC1=C2C(=O)O[C@@H](c3ccoc3)[C@]2(C)CCC1 [Fraxinellone] (10 µM) 0
COc1cc(C(N)=O)nc(-c2cccc(C#C[C@]3(O)CCN(C)C3=O)c2)c1 (10 µM) 0
COc1ncc(-c2nc(N3CCOCC3)nc3c(CN4CCC(C(C)(C)O)CC4)cc(F)cc23)cc1NS(C)(=O)=O [Linperlisib] (10 µM) 0
Fc1ccc(-c2nc(-c3ccccc3F)[nH]c2-c2ccncc2)cc1 (2.5 µM) 0
CC(C)=CC[C@H](O)C1=CC(=O)c2c(O)ccc(O)c2C1=O [(-)-Alkannin] (2.5 µM) 0
CC(C)c1cnc(-c2cc(Cl)ccc2F)cc1Nc1ccncc1C(=O)NC(CO)CO (2.5 µM) 0
Cn1cnc(-c2cc3nccc(Oc4ccc(NC(=S)NC(=O)Cc5ccccc5)cc4F)c3s2)c1 [MGCD-265 analog] (10 µM) 0
COC1(c2sc3c(N4CCOCC4)nc(-c4cnc(N)nc4)nc3c2C)COC1 (2.5 µM) 0
Cc1cc(NC(=O)c2cccc(NC(=O)/C=C/CN(C)C)c2)ccc1Nc1nccc(-c2cccnc2)n1 (10 µM) 0
O=C(/C=C/c1ccc(O)c(O)c1)OC1CC(OC(=O)/C=C/c2ccc(O)c(O)c2)(C(=O)O)CC(O)C1O (stereo not drawn) [1,3-Dicaffeoylquinic acid] (10 µM) 0
COc1ccc2c(c1O)OC(C)(C)c1c-2ccc2c1C(=O)N(c1ccc(C(=O)c3ccccc3)cc1)C2=O [Ampkinone] (10 µM) 0
CNC(=O)Nc1ccc(-c2cc(-c3ccnc(Nc4ccc(C)c(S(=O)(=O)N(C)C)c4)n3)ccn2)cc1 [hSMG-1 inhibitor 11e] (2.5 µM) 0

Random excerpt: 2 records from the list.
kinase-Nluc reporter destabilization hit call, inactive:
O=C(NCCCNc1nc(Nc2cccc(NC(=O)N3CCCC3)c2)ncc1I)c1cccs1 (2.5 µM) 0
COc1ccc(C(=C2C(=O)Nc3ccccc32)c2ccc(OC)cc2)cc1 (10 µM) 0
